Experimental data from patent US20090192137A1, “Dialysis method” (AstraZeneca AB, priority 1993, published 2009).

What was measured:
[1] = Haemodialysis simulation, filtration of melagatran in a closed system of re-circulation; assay type: in vitro ADME
[2] = Haemodialysis simulation, filtration of melagatran in an open single pass system; assay type: in vitro ADME
[3] = steady state after about 5 minutes

N=C(N)c1ccc(CNC(=O)[C@@H]2CCN2C(=O)[C@H](NCC(=O)O)C2CCCCC2)cc1 [melagatran, HOOC—CH2—(R)Cgl-Aze-Pab-H]
concentration of melagatran at donor side in- and outlets ([1]; after about 2 hours, equilibrated): around 180 nM | concentration of melagatran in the tank (Recipient side), level-off ([1]; after about 2 hours, with some delay compared to the Donor side): around 180 mM | time until the system had equilibrated ([1]; closed system, tank with 15 L saline): about 2 hours | gradient between inlet C and outlet B on the Donor side ([1]; when concentrations on the recipient side were small): about 130 nM | concentration of melagatran on the Recipient side (outlet A), plateau ([2]; after 5 minutes): about 130 nM | fall of melagatran concentration on the Donor side ([2]; inlet C versus outlet B at steady state): about 130 nM | time to experimental steady state ([2]; open single pass system, dialysis fluid about 0.2 μM melagatran): about 5 minutes | concentration of melagatran at inlet C on the Donor side [2, 3]: about 180 nM | concentration of melagatran at outlet B on the Donor side [2, 3]: about 50 nM | diffusion gradient across the membrane ([2]; steady state, anti-parallel flows): about 50 nM
